These are yes or no findings as the source states them, for the method shown. Binding seen in cells or lysates may run through a third protein. A result given as binding can be weak or reduced; the word gives no strength. For part of these data: Sequences can lack the tags named with a protein.

Assay [1] addresses T1, Myc-tagged Tak1 (transforming growth factor-β-associated kinase 1, Drosophila) (Drosophila) (UniProt Q9V3Q6).
T1 sequence: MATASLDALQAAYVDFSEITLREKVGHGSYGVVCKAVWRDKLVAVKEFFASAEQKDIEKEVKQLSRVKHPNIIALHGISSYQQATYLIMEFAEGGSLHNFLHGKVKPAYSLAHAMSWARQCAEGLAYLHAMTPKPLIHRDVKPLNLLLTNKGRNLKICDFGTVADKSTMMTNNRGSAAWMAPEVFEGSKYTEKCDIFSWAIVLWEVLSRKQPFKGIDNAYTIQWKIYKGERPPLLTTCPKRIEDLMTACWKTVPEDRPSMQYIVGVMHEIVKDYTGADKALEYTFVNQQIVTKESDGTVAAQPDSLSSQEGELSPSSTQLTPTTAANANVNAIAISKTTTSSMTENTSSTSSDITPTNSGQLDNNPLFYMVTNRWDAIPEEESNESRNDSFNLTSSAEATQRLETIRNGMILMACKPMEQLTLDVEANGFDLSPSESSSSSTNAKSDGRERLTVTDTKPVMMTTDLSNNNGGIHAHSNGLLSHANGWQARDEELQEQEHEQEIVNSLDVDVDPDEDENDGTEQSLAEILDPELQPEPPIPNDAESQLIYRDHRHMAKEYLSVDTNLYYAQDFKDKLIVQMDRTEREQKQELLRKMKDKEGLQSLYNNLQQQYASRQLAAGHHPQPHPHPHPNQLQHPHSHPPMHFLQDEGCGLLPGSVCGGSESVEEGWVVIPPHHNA
In words: co-IP; 293 T cells transfected with tagged constructs (Lipofectamine 2000), collected 48 h after transfection; IP with anti-Fg or anti-Myc, immunoblot.

The target in assay [2] is T2, endogenous Tak1 (Drosophila) (Drosophila (endogenous in third instar larvae)) (UniProt Q9V3Q6).
T2 sequence: T1 sequence
The assay is described as follows: co-IP; endogenous proteins, third instar larval protein samples; home-made mouse anti-Tak1 and anti-Usp8 antibodies.

For assay [3], the target named is Fg-tagged Usp8 (ubiquitin-specific protease 8, Drosophila) (Drosophila). The assay is described as follows: co-IP; 293 T cells transfected with tagged constructs (Lipofectamine 2000), collected 48 h after transfection; IP with anti-Fg or anti-Myc, immunoblot.

With “Fg-tagged Usp8 (ubiquitin-specific protease 8, Drosophila) (enzyme)”, the binding result in assay [1] is on record as “binds”.

In the case of endogenous Usp8 (Drosophila) (enzyme), the binding result in assay [2] is recorded as “binds”.

B1: Myc-tagged Tak1 (transforming growth factor-β-associated kinase 1, Drosophila) (enzyme, UniProt Q9V3Q6 1-678)
chain: T1 sequence
For the molecule B1, in assay [3], the binding result is recorded as “binds”.

For the origin of these results see paper PMC8971431.
